# PubChem BioAssay AID1224830, NIAID | 2016
# Screen: 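Host factors that control LPS-induced TNF expression in human macrophages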 (primary screen)
# System: human THP-1 monocytic leukaemia cells, TNF dual-luciferase reporter clone, PMA-differentiated to macrophage-like cells
# Reagents: siRNA pool against human genes, 50 nM
# Duration: LPS for 4 h, given about 3 days after siRNA transfection
# Treatment: bacterial LPS (TLR4 ligand), 10 ng/ml
# Measurement: 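TNF firefly reporter luminescence divided by renilla, normalised to the plate median, then turned into a robust z-score for each replicate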
# Direction: TNF reporter robust z-score: higher = stronger TNF reporter response to LPS
# Hit rule: 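a well is active when its z-score exceeds 2.8 or falls below -1.5; control wells carry no call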
# The deposit covers about 18,000 reagents; this is a part drawn at random. About 2,900 of them (16%) were called active. 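Calls are made per well; low scores hint the gene aids the LPS response, high scores that it dampens it.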 Repeated entries: four replicate wells of each siRNA pool.
gene,TNF reporter robust z-score,Outcome
CCNJ,-1.13,inactive
CCNJ,-0.66,inactive
CCNJ,-0.19,inactive
CCNJ,0.1,inactive
MAGI1,-0.56,inactive
MAGI1,-1.05,inactive
MAGI1,-0.75,inactive
MAGI1,-0.26,inactive
CD101,-0.22,inactive
CD101,-0.41,inactive
CD101,0.31,inactive
CD101,3.77,active
NAPEPLD,0,inactive
NAPEPLD,0.49,inactive
NAPEPLD,-0.46,inactive
NAPEPLD,0.05,inactive
MEPE,-0.75,inactive
MEPE,0.38,inactive
MEPE,-0.84,inactive
MEPE,-0.07,inactive
RENBP,-0.55,inactive
RENBP,0.43,inactive
RENBP,-0.49,inactive
RENBP,-0.56,inactive
DMRTC1B,1.3,inactive
DMRTC1B,1.25,inactive
DMRTC1B,0.93,inactive
DMRTC1B,1.43,inactive
LY6E,-0.93,inactive
LY6E,-0.34,inactive
LY6E,-0.39,inactive
LY6E,-0.42,inactive
LRRC3B,10.6,active
LRRC3B,-0.54,inactive
LRRC3B,-1.6,active
LRRC3B,-0.52,inactive
YBX1,-1.37,inactive
YBX1,0.01,inactive
YBX1,-1.05,inactive
YBX1,-0.86,inactive
FAM27E5,0.4,inactive
FAM27E5,0.5,inactive
FAM27E5,1.17,inactive
FAM27E5,-0.16,inactive
SYNPO2,-1.41,inactive
SYNPO2,-0.12,inactive
SYNPO2,0.63,inactive
SYNPO2,3.87,active
FHL5,-0.29,inactive
FHL5,0.46,inactive
FHL5,-0.34,inactive
FHL5,-1.43,inactive
SUN1,-1.39,inactive
SUN1,-1.11,inactive
SUN1,-1.51,active
SUN1,-0.83,inactive
NSUN5,-0.21,inactive
NSUN5,0.86,inactive
NSUN5,0.83,inactive
NSUN5,1.57,inactive
FGF20,0.43,inactive
FGF20,1.34,inactive
FGF20,1.09,inactive
FGF20,-0.51,inactive
RELA,-0.98,inactive
RELA,-0.96,inactive
RELA,-1.17,inactive
RELA,-0.18,inactive
PABPN1L,0.41,inactive
PABPN1L,0.91,inactive
PABPN1L,0.66,inactive
PABPN1L,0.57,inactive
ATG16L1,-0.43,inactive
ATG16L1,-0.1,inactive
ATG16L1,-0.81,inactive
ATG16L1,-0.73,inactive
MKRN3,1.32,inactive
MKRN3,5.45,active
MKRN3,0.44,inactive
MKRN3,0.72,inactive
CDKL4,-0.54,inactive
CDKL4,-0.49,inactive
CDKL4,-0.7,inactive
CDKL4,-0.09,inactive
KRTAP10-11,0.33,inactive
KRTAP10-11,0.61,inactive
KRTAP10-11,-0.63,inactive
KRTAP10-11,1.18,inactive
HDDC2,-1.14,inactive
HDDC2,0.37,inactive
HDDC2,0.21,inactive
HDDC2,-0.25,inactive
CLIC4,0.35,inactive
CLIC4,0.54,inactive
CLIC4,0.16,inactive
CLIC4,-0.44,inactive
RHOF,-1.45,inactive
RHOF,-1.27,inactive
RHOF,-1.49,inactive
RHOF,-0.48,inactive
IKZF4,0.44,inactive
IKZF4,0.33,inactive
IKZF4,0.36,inactive
IKZF4,0.76,inactive
CEP63,-1.28,inactive
CEP63,0.03,inactive
CEP63,-0.68,inactive
CEP63,-0.96,inactive
CYS1,-1.58,active
CYS1,-1.11,inactive
CYS1,-1.34,inactive
CYS1,-0.68,inactive
ZNF749,-0.12,inactive
ZNF749,-0.17,inactive
ZNF749,-0.45,inactive
ZNF749,-0.26,inactive
FAM76B,-1.08,inactive
FAM76B,-1.45,inactive
FAM76B,-1.31,inactive
FAM76B,-0.84,inactive
SLC25A24,0.18,inactive
SLC25A24,-0.22,inactive
SLC25A24,0.37,inactive
SLC25A24,-0.42,inactive
DYNLT4,0.75,inactive
DYNLT4,-0.02,inactive
DYNLT4,-1.63,active
DYNLT4,-0.5,inactive
ZMAT4,2.5,inactive
ZMAT4,3.43,active
ZMAT4,-1.38,inactive
ZMAT4,1.58,inactive
SLC24A2,1.58,inactive
SLC24A2,2.8,active
SLC24A2,2.25,inactive
SLC24A2,0.88,inactive
KXD1,-0.77,inactive
KXD1,-0.24,inactive
KXD1,-0.01,inactive
KXD1,0.47,inactive
